This note sets out measurements from PMC10849765.

Sequences of proteins named here, by UniProt entry; tags and fusion partners are left off. A change or cut given only in a name is not applied to a line headed by its entry. A line that says so, or that is headed by a name, gives the form on record, which may keep a tag or linker. Residues count along the entry.
ARRB1-Δexon 13 (β-arrestin 1 isoform lacking exon 13) (P49407, form named): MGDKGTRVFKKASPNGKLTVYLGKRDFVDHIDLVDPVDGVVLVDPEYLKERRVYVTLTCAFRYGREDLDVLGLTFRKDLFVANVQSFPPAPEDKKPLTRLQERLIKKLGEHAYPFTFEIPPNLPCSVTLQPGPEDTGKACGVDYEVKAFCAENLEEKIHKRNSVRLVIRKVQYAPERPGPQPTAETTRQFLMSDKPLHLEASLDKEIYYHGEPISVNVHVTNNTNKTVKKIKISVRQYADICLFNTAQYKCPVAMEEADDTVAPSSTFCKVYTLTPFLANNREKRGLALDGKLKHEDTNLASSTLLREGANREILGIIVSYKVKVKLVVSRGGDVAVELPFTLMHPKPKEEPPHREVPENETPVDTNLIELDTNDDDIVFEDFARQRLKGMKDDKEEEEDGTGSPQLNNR
UniProt O00571: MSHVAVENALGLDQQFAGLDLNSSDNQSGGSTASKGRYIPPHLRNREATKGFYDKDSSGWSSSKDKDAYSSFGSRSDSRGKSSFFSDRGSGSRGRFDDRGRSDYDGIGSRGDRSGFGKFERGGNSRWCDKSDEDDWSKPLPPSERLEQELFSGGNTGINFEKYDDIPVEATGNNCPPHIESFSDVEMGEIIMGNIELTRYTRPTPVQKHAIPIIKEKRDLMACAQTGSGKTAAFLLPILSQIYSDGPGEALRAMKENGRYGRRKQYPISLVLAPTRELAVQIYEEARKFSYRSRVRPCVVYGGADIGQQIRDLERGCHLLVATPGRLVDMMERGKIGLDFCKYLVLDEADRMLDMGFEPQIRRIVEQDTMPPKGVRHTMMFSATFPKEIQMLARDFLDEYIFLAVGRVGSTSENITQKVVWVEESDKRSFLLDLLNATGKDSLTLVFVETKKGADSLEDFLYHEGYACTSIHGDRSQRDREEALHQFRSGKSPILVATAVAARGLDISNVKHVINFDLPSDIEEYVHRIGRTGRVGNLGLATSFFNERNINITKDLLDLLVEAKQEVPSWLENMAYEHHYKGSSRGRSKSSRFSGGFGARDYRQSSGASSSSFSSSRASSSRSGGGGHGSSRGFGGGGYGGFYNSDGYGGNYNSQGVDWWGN
tDDX3X-C expressed in U87-MG and MDA-MB-231 cells (co-IP): residues 125-662 of O00571
UniProt P06733: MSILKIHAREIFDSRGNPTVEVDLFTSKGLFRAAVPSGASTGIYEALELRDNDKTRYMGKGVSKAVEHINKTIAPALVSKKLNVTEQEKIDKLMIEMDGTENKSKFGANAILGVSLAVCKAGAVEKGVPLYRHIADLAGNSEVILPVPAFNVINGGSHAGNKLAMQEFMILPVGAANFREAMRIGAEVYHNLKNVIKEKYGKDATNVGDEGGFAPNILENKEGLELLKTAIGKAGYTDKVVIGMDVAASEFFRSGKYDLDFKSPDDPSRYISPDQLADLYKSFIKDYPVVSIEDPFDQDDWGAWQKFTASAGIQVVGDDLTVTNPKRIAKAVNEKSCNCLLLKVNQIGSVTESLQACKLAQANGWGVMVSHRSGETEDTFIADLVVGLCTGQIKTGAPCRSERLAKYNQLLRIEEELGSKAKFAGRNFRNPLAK
UniProt Q07955: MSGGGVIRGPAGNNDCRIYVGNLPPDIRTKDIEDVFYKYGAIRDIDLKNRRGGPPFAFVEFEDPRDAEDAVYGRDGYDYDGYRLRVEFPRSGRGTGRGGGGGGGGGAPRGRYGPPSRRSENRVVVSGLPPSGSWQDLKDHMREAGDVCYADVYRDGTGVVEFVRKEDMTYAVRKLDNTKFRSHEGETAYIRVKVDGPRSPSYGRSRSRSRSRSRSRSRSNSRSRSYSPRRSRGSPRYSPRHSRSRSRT
UniProt Q62167: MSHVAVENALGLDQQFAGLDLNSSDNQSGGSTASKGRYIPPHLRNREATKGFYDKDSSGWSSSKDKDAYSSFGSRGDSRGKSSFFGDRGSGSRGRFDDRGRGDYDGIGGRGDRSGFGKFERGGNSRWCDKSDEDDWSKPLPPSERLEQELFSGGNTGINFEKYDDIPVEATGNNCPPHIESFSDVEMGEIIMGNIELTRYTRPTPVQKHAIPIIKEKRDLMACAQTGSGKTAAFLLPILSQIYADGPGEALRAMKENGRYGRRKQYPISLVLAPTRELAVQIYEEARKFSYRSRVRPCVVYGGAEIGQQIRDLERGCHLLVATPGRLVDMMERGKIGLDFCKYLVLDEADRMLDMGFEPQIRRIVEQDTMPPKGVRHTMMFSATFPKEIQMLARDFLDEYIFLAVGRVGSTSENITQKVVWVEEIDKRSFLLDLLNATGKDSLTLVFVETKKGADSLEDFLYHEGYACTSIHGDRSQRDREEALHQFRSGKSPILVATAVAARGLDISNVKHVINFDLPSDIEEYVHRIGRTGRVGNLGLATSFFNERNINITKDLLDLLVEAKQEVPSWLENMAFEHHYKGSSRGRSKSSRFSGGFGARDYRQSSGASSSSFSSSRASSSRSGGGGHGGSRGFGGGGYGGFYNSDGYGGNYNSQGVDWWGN

The target of assay [1] is ARRB1-Δexon 13 (β-arrestin 1 isoform lacking exon 13) (human) (UniProt P49407). Briefly: co-IP; co-IP of ARRB1-Δexon 13, ARRB1-WT and ENO1.
Assay [2] concerns the target YC156-tDDX3X-C (truncated DDX3X fused to a C-terminal YFP fragment) (human) (UniProt O00571). As to the kind of experiment: split reporter; BiFC with split YFP (YN155/YC156) in HEK293T cells, confocal microscopy 48 hours after transfection.
Assay [3] concerns the target T1, AEP of the DDX3X domain co-IP assay (human) (UniProt Q99538).
T1 sequence: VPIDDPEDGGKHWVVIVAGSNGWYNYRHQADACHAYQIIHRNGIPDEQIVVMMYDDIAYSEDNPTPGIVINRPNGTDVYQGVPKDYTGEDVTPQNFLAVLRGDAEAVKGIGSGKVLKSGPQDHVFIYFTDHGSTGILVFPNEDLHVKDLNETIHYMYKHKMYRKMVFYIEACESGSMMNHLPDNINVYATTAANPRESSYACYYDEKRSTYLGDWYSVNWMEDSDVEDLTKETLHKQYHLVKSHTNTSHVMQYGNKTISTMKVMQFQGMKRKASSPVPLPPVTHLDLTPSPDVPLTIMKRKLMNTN
Briefly: co-IP; domain assay: different DDX3X domains tested for interaction with AEP.

The target in assay [4] is tDDX3X-C of the exogenous co-IP in HEK293T cells (human) (UniProt O00571). As to the kind of experiment: co-IP; exogenous co-IP, HEK293T cells transfected with the indicated plasmids.
Assay [5] has as its target T2, asparagine endopeptidase (AEP), endogenous in human tumor cells (human (endogenous in U87-MG, U251-MG, MDA-MB-231)) (UniProt Q99538).
T2 sequence: T1 sequence
Briefly: co-IP; endogenous co-IP in U87-MG, U251-MG and MDA-MB-231 cells that underwent hypoxia and nutrient deprivation.

The target of assay [6] is tDDX3X-C expressed in U87-MG and MDA-MB-231 cells (co-IP) (human) (UniProt O00571). As to the kind of experiment: co-IP; co-IP from U87-MG and MDA-MB-231 cells expressing tDDX3X-C (1 × 10^7 cells), endogenous partners.
For assay [7], the target named is T3, asparagine endopeptidase (AEP), human, re-expressed in AEP-KO mouse embryonic fibroblasts (human) (UniProt Q99538).
T3 sequence: T1 sequence
Briefly: co-IP; AEP or IgG immunoprecipitates of the AEP-re-expressing MEFs, immunoblot for DDX3X. A general note: Immunoblotting shows a protein as a band on a membrane.

No constants are given. Whether binding was seen depends on the method and setting. Binding seen in cells or lysates may run through a third protein. Some entries that bind do so weakly or less than the wild type.

Regarding “ENO1 (from UniProt P06733 1-434) (enzyme)”, the binding entry in assay [1] was “binds”.
With “YN155-SRSF1 (N-terminal YFP fragment fused to serine/arginine rich splicing factor 1) (from UniProt Q07955 1-248)”, the binding entry in assay [2] is given as “binds”.
As for “N-terminus of DDX3X (amino acids 1-159) (from UniProt O00571 1-159) (domain or fragment)”, in assay [3], the binding result is reported as “binds”.
For “serine/arginine rich splicing factor 1 (SRSF1) of the exogenous co-IP in HEK293T cells (from UniProt Q07955 1-248)”, the binding entry in assay [4] was “binds”.
For “DEAD-box helicase 3 X-linked (DDX3X), endogenous in human tumor cells (from UniProt O00571 1-662)”, the binding result in assay [5] is recorded as “binds”.
“SRSF1, endogenous in U87-MG and MDA-MB-231 cells (from UniProt Q07955 1-248)”: in assay [6], the binding entry is “binds”.
Consider “DEAD-box helicase 3 X-linked (DDX3X), endogenous in mouse embryonic fibroblasts (from UniProt Q62167 1-662)”, for which, in assay [7], the binding entry is “binds”.
